PubChem BioAssay AID1224830 | NIAID | 2016
In all, the deposit lists about 18,000 reagents; shown is a part drawn at random. Of all reagents, about 2,900 (16%) are marked active. 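Calls are made per well; low scores hint the gene aids the LPS response, high scores that it dampens it.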 Entries without a mark were called inactive. Repeated entries: four replicate wells of each siRNA pool.

Screen: 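Regulators of TLR4 signalling towards TNF-alpha in macrophage-like cells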 (primary screen)
System: human THP-1 monocytic leukaemia cells, TNF dual-luciferase reporter clone, PMA-differentiated to macrophage-like cells
Reagent: siRNA pool against human genes, 50 nM
Timing: LPS for 4 h, given about 3 days after siRNA transfection
Treatment: bacterial LPS (TLR4 ligand), 10 ng/ml
Measurement: 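Ratio of firefly to renilla light, scaled to the plate median and expressed as a robust z-score per replicate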
Direction: TNF reporter robust z-score: higher = stronger TNF reporter response to LPS
Active means: 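Each well counts as active if its z-score is over 2.8 or under -1.5; controls are left without a call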

gene | PubChem SID | TNF reporter robust z-score
WDR73 (WD repeat domain 73) | SID315460594 | 0.09
WDR73 (WD repeat domain 73) | SID315460594 | -0.14
WDR73 (WD repeat domain 73) | SID315460594 | 0.31
WDR73 (WD repeat domain 73) | SID315460594 | 0.22
B3GNT4 | SID315459275 | 0.1
B3GNT4 | SID315459275 | 0.67
B3GNT4 | SID315459275 | 1.57
B3GNT4 | SID315459275 | 0.62
SKA1 (spindle and kinetochore associated complex subunit 1) | SID315463241 | 0.62
SKA1 (spindle and kinetochore associated complex subunit 1) | SID315463241 | 2.21
SKA1 (spindle and kinetochore associated complex subunit 1) | SID315463241 | 0.82
SKA1 (spindle and kinetochore associated complex subunit 1) | SID315463241 | 0.9
SHD (Src homology 2 domain containing transforming protein D) | SID315458195 | 0.3
SHD (Src homology 2 domain containing transforming protein D) | SID315458195 | 1.17
SHD (Src homology 2 domain containing transforming protein D) | SID315458195 | 0.21
SHD (Src homology 2 domain containing transforming protein D) | SID315458195 | 0.42
SPATA8 (spermatogenesis associated 8) | SID315462262 | 0.93
SPATA8 (spermatogenesis associated 8) | SID315462262 | 2.87 (active)
SPATA8 (spermatogenesis associated 8) | SID315462262 | 1.88
SPATA8 (spermatogenesis associated 8) | SID315462262 | 0.89
MNS1 (meiosis specific nuclear structural 1) | SID315457600 | -0.7
MNS1 (meiosis specific nuclear structural 1) | SID315457600 | -0.46
MNS1 (meiosis specific nuclear structural 1) | SID315457600 | -0.65
MNS1 (meiosis specific nuclear structural 1) | SID315457600 | -1.02
GEMIN4 (gem nuclear organelle associated protein 4) | SID315456341 | -1.04
GEMIN4 (gem nuclear organelle associated protein 4) | SID315456341 | -0.69
GEMIN4 (gem nuclear organelle associated protein 4) | SID315456341 | 0.16
GEMIN4 (gem nuclear organelle associated protein 4) | SID315456341 | -0.68
CAPG (capping actin protein, gelsolin like) | SID315447689 | -0.01
CAPG (capping actin protein, gelsolin like) | SID315447689 | -0.16
CAPG (capping actin protein, gelsolin like) | SID315447689 | 1.28
CAPG (capping actin protein, gelsolin like) | SID315447689 | 0.12
PRIMPOL (primase and DNA directed polymerase) | SID315463094 | 1.48
PRIMPOL (primase and DNA directed polymerase) | SID315463094 | 0.78
PRIMPOL (primase and DNA directed polymerase) | SID315463094 | 1.34
PRIMPOL (primase and DNA directed polymerase) | SID315463094 | 0.79
DTNBP1 (dystrobrevin binding protein 1) | SID315460166 | 0.06
DTNBP1 (dystrobrevin binding protein 1) | SID315460166 | -0.65
DTNBP1 (dystrobrevin binding protein 1) | SID315460166 | 0
DTNBP1 (dystrobrevin binding protein 1) | SID315460166 | 0.6
CEP97 (centrosomal protein 97) | SID315459316 | -0.38
CEP97 (centrosomal protein 97) | SID315459316 | -0.06
CEP97 (centrosomal protein 97) | SID315459316 | -0.29
CEP97 (centrosomal protein 97) | SID315459316 | -0.92
BARHL1 (BarH like homeobox 1) | SID315458117 | 0.19
BARHL1 (BarH like homeobox 1) | SID315458117 | -0.85
BARHL1 (BarH like homeobox 1) | SID315458117 | -0.28
BARHL1 (BarH like homeobox 1) | SID315458117 | -0.64
TMEM80 (transmembrane protein 80) | SID315463648 | 0.32
TMEM80 (transmembrane protein 80) | SID315463648 | 1.33
TMEM80 (transmembrane protein 80) | SID315463648 | 0.71
TMEM80 (transmembrane protein 80) | SID315463648 | 1
TACR2 (tachykinin receptor 2) | SID315451730 | 0.36
TACR2 (tachykinin receptor 2) | SID315451730 | -0.55
TACR2 (tachykinin receptor 2) | SID315451730 | -0.98
PXT1 (peroxisomal testis enriched protein 1) | SID315463353 | 0.02
PXT1 (peroxisomal testis enriched protein 1) | SID315463353 | 0.24
PXT1 (peroxisomal testis enriched protein 1) | SID315463353 | -0.34
PXT1 (peroxisomal testis enriched protein 1) | SID315463353 | 0.87
XAGE5 (X antigen family member 5) | SID315462908 | 0.5
XAGE5 (X antigen family member 5) | SID315462908 | -0.11
XAGE5 (X antigen family member 5) | SID315462908 | -0.51
XAGE5 (X antigen family member 5) | SID315462908 | -0.84
SLC26A10P | SID315459070 | 1.66
SLC26A10P | SID315459070 | 2.65
SLC26A10P | SID315459070 | 2.56
SLC26A10P | SID315459070 | 3.67 (active)
KPNA6 (karyopherin subunit alpha 6) | SID315455381 | 0.1
KPNA6 (karyopherin subunit alpha 6) | SID315455381 | 0.07
KPNA6 (karyopherin subunit alpha 6) | SID315455381 | 0.36
KPNA6 (karyopherin subunit alpha 6) | SID315455381 | -0.27
GPC6 (glypican 6) | SID315453803 | -0.09
GPC6 (glypican 6) | SID315453803 | -0.86
GPC6 (glypican 6) | SID315453803 | -0.51
GPC6 (glypican 6) | SID315453803 | -0.49
EXOSC9 (exosome component 9) | SID315450667 | -0.95
EXOSC9 (exosome component 9) | SID315450667 | -0.15
EXOSC9 (exosome component 9) | SID315450667 | -0.28
EXOSC9 (exosome component 9) | SID315450667 | -0.64
SCUBE1 (signal peptide, CUB domain and EGF like domain containing 1) | SID315459732 | -0.99
SCUBE1 (signal peptide, CUB domain and EGF like domain containing 1) | SID315459732 | -1.18
SCUBE1 (signal peptide, CUB domain and EGF like domain containing 1) | SID315459732 | -0.6
SCUBE1 (signal peptide, CUB domain and EGF like domain containing 1) | SID315459732 | -1.03
PREX2 | SID315459720 | 0.99
PREX2 | SID315459720 | -0.48
PREX2 | SID315459720 | 0.28
PREX2 | SID315459720 | 0.15
ZRANB3 (zinc finger RANBP2-type containing 3) | SID315460186 | -0.96
ZRANB3 (zinc finger RANBP2-type containing 3) | SID315460186 | -0.06
ZRANB3 (zinc finger RANBP2-type containing 3) | SID315460186 | -0.18
SYNGR3 (synaptogyrin 3) | SID315453079 | 0.25
SYNGR3 (synaptogyrin 3) | SID315453079 | -0.43
SYNGR3 (synaptogyrin 3) | SID315453079 | 0.4
SYNGR3 (synaptogyrin 3) | SID315453079 | 0.09
DHDH (dihydrodiol dehydrogenase) | SID315456014 | -0.45
DHDH (dihydrodiol dehydrogenase) | SID315456014 | -0.29
DHDH (dihydrodiol dehydrogenase) | SID315456014 | -0.24
DHDH (dihydrodiol dehydrogenase) | SID315456014 | -0.52
LEPR (leptin receptor) | SID315449751 | 0.03
LEPR (leptin receptor) | SID315449751 | -0.11
LEPR (leptin receptor) | SID315449751 | -0.6
LEPR (leptin receptor) | SID315449751 | -0.67
H1-0 (H1.0 linker histone) | SID315449129 | -0.02
H1-0 (H1.0 linker histone) | SID315449129 | -0.24
H1-0 (H1.0 linker histone) | SID315449129 | 0.57
H1-0 (H1.0 linker histone) | SID315449129 | -1.36
FBF1 (Fas binding factor 1) | SID315460656 | 0
FBF1 (Fas binding factor 1) | SID315460656 | -0.15
FBF1 (Fas binding factor 1) | SID315460656 | 0.35
FBF1 (Fas binding factor 1) | SID315460656 | 0.96
